Experimental data: the supplement of paper PMC4604168 (melanoma cell lines)
This is one part of the list. Single values are uncertain, as repeats are few or missing.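 Imaging used 1,536-well plates; nuclei positive for cleaved PARP by antibody were divided by total DNA-stained nuclei to yield the apoptosis fraction. Doses for screening kept most cells viable, and cell lines differ markedly in resting and induced cleaved-PARP levels.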

Assays:
Experiment in all cases: cleaved PARP positive nuclei fraction relative to DMSO control; melanoma cells; higher = more apoptosis
Conditions in all cases: library dose: low library concentration; 72 h
501Mel = test system: 501Mel
A101D = test system: A101D
A2058 = test system: A2058
A375 = test system: A375
C32 = test system: C32
CBRC013 = test system: CBRC013 (line from a melanoma biopsy)
CBRC014 = test system: CBRC014 (line from a melanoma biopsy)
CBRC016 = test system: CBRC016 (line from a melanoma biopsy)
CBRC017 = test system: CBRC017 (line from a melanoma biopsy)
CBRC034 = test system: CBRC034 (line from a melanoma biopsy)
COLO792 = test system: COLO792
COLO800 = test system: COLO800
COLO829 = test system: COLO829
G361 = test system: G361
IPC-298 = test system: IPC-298
IST-MEL1 = test system: IST-MEL1
LB2518-MEL = test system: LB2518-MEL
LOXIMVI = test system: LOXIMVI

Row | SMILES | cleaved PARP positive nuclei fraction (501Mel) | cleaved PARP positive nuclei fraction (A101D) | cleaved PARP positive nuclei fraction (A2058) | cleaved PARP positive nuclei fraction (A375) | cleaved PARP positive nuclei fraction (C32) | cleaved PARP positive nuclei fraction (CBRC013) | cleaved PARP positive nuclei fraction (CBRC014) | cleaved PARP positive nuclei fraction (CBRC016) | cleaved PARP positive nuclei fraction (CBRC017) | cleaved PARP positive nuclei fraction (CBRC034) | cleaved PARP positive nuclei fraction (COLO792) | cleaved PARP positive nuclei fraction (COLO800) | cleaved PARP positive nuclei fraction (COLO829) | cleaved PARP positive nuclei fraction (G361) | cleaved PARP positive nuclei fraction (IPC-298) | cleaved PARP positive nuclei fraction (IST-MEL1) | cleaved PARP positive nuclei fraction (LB2518-MEL) | cleaved PARP positive nuclei fraction (LOXIMVI)
1 | NC(=O)Nc1cc(-c2cccc(F)c2)sc1C(=O)N[C@H]1CCCNC1 + Oc1nc(-c2ccc(C(F)(F)F)cc2)nc2c1CSCC2 [XAV939] (first compound 0.02 µM, partner dose 2 µM) | 126% | 166% | 112% | 389% | 38.3% | 217% | 101% | 87.4% | 84.8% | 90.8% | 98.5% | 187% | 136% | 23.7% | 82.2% | 47.9% | 198% | 75.1%
2 | O=C(CCCCCCC(=O)Nc1ccccc1)NO [vorinostat] + Oc1cc(-c2nc(-c3ccccc3)[nH]c2-c2ccncc2)ccc1Cl [L779450] (first compound 0.08 µM, partner dose 0.2 µM) | 122% | 56.9% | 65.3% | 42.5% | 237% | 21.8% | 128% | 89.5% | 100% | 92.2% | 147% | 113% | 95.9% | 177% | 193% | 236% | 191% | 59.3%
3 | NC(=O)Nc1cc(-c2cccc(F)c2)sc1C(=O)N[C@H]1CCCNC1 + O=S(=O)(c1ccccc1)N(CC(F)(F)F)c1ccc(C(O)(C(F)(F)F)C(F)(F)F)cc1 [T0901317] (first compound 0.02 µM, partner dose 1.4 µM) | 78.3% | 196% | 113% | 407% | 80.6% | 51.9% | 96.7% | 105% | 187% | 178% | 51.2% | 81% | 52.4% | 67.6% | 104% | 145% | 59.8% | 50.2%
4 | Cc1ccc(NC(=O)c2cccc(N(C)C)c2)cc1NC(=O)c1ccc(O)cc1 + COc1ccc(COc2ccc(Cc3cnc(N)nc3N)cc2OC)cc1 [GW2580] (first compound 2 µM, partner dose 1 µM) | 89.7% | 160% | 38.9% | 98.3% | 26.1% | 142% | 110% | 61.5% | 99.1% | 103% | 50.9% | 41.7% | 91.9% | 45.2% | 49.8% | 90.4% | 80.9% | 68.4%
5 | C[C@@H]1CCN(C(=O)CC#N)C[C@@H]1N(C)c1ncnc2[nH]ccc12 + Oc1cc(-c2nc(-c3ccccc3)[nH]c2-c2ccncc2)ccc1Cl [L779450] (first compound 1 µM, partner dose 0.2 µM) | 209% | 116% | 271% | 169% | 144% | 187% | 99.3% | 84.9% | 156% | 90% | 91.1% | 140% | 69% | 103% | 175% | 45.8% | 85.4% | 54.3%
6 | CC(C)(C)c1cnc(CSc2cnc(NC(=O)C3CCNCC3)s2)o1 + Cc1cc([N+](=O)[O-])ccc1NS(=O)(=O)c1cc(Cl)ccc1Cl [FH535] (first compound 0.01 µM, partner dose 1 µM) | 172% | 125% | 74% | 100% | 22% | 283% | 171% | 571% | 257% | 112% | 82.7% | 101% | 88.2% | 214% | 63.8% | 184% | 92.2% | 89.3%
7 | CC(C)(C)c1cnc(CSc2cnc(NC(=O)C3CCNCC3)s2)o1 + O=C1NC(=O)/C(=C/c2ccc(-c3ccc(F)cc3O)o2)S1 [AS252424] (first compound 0.01 µM, partner dose 1 µM) | 40.7% | 146% | 64.2% | 113% | 177% | 102% | 84.5% | 55.6% | 74.6% | 51.8% | 133% | 77.1% | 145% | 201% | 107% | 55.5% | 89% | 71.5%
8 | Cc1nc(Nc2ncc(C(=O)Nc3c(C)cccc3Cl)s2)cc(N2CCN(CCO)CC2)n1 [dasatanib] + CCN(CC)CCCCNc1ncc2cc(-c3cc(OC)cc(OC)c3)c(NC(=O)NC(C)(C)C)nc2n1 [PD173074] (first compound 0.004 µM, partner dose 0.1 µM) | 186% | 190% | 376% | 261% | 74.3% | 431% | 101% | 78.1% | 82.4% | 138% | 159% | 47.4% | 160% | 90.9% | 215% | 99.5% | 82.9% | 37.1%
9 | Cn1nnc2c(C(N)=O)ncn2c1=O [temozolomide] + O=C(Nc1ccccc1)c1cc([N+](=O)[O-])ccc1Cl [GW9662] (first compound 2 µM, partner dose 2 µM) | 94.7% | 115% | 50.8% | 157% | 400% | 123% | 113% | 74.1% | 88% | 66.6% | 55.6% | 108% | 185% | 51.7% | 38.2% | 126% | 41.5% | 95.5%
10 | Cc1ccc(NC(=O)c2cccc(N(C)C)c2)cc1NC(=O)c1ccc(O)cc1 + O=C1NC(=O)/C(=C/c2ccc(-c3ccc(F)cc3O)o2)S1 [AS252424] (first compound 2 µM, partner dose 1 µM) | 152% | 114% | 92.7% | 238% | 149% | 80.8% | 116% | 61.4% | 114% | 81.5% | 97.4% | 80.3% | 65.3% | 52.5% | 112% | 124% | 88% | 61%
11 | COc1cc(Nc2ncc(F)c(Nc3ccc4c(n3)NC(=O)C(C)(C)O4)n2)cc(OC)c1OC [Tamatinib] + Cn1cc(/C=C2\C(=O)Nc3cccnc32)c2ccccc21 [GW441756] (first compound 0.4 µM, partner dose 0.4 µM) | 81.1% | 243% | 100% | 144% | 61.3% | 155% | 101% | 21.4% | 80.1% | 126% | 364% | 183% | 160% | 27.4% | 52.4% | 172% | 85.1% | 63.4%
12 | Cn1nnc2c(C(N)=O)ncn2c1=O [temozolomide] + COc1ccc(-c2ccc3c(N4CCOCC4)nc(N4C[C@@H](C)O[C@@H](C)C4)nc3n2)cc1CO [KU0063794] (first compound 2 µM, partner dose 0.02 µM) | 83.2% | 46.1% | 119% | 34.3% | 62.8% | 543% | 101% | 80.6% | 69.6% | 38.2% | 104% | 111% | 59.3% | 115% | 110% | 122% | 64.1% | 41.9%
13 | Cc1nc(Nc2ncc(C(=O)Nc3c(C)cccc3Cl)s2)cc(N2CCN(CCO)CC2)n1 [dasatanib] + COC(=O)c1sccc1S(=O)(=O)Nc1ccc(Nc2ccccc2)cc1OC [GSK0660] (first compound 0.004 µM, partner dose 1 µM) | 37% | 141% | 83.1% | 34.7% | 71.1% | 220% | 111% | 49.7% | 52.6% | 171% | 190% | 74.5% | 116% | 142% | 108% | 77.4% | 170% | 218%
14 | Cc1nc(Nc2ncc(C(=O)Nc3c(C)cccc3Cl)s2)cc(N2CCN(CCO)CC2)n1 [dasatanib] + O=S(=O)(c1ccccc1)N(CC(F)(F)F)c1ccc(C(O)(C(F)(F)F)C(F)(F)F)cc1 [T0901317] (first compound 0.004 µM, partner dose 1.4 µM) | 98.4% | 107% | 138% | 164% | 248% | 375% | 175% | 73.5% | 90.6% | 78.1% | 104% | 100% | 156% | 148% | 104% | 99.8% | 90.7% | 67.1%
15 | O=C(CCCCCCC(=O)Nc1ccccc1)NO [vorinostat] + c1cc(-c2cnn3cc(-c4ccc(OCCN5CCCCC5)cc4)cnc23)ccn1 [Dorsomorphin] (first compound 0.08 µM, partner dose 0.4 µM) | 51.7% | 115% | 89.5% | 74.5% | 128% | 55.8% | 84.2% | 73.5% | 79.7% | 38.1% | 65.1% | 160% | 83.4% | 292% | 19.5% | 85.5% | 41.2% | 54.9%
16 | O=C(Nc1cccc(Cl)c1)Nc1ncc(CCNc2ncnc3ccsc23)s1 + COc1cc2ncnc(Nc3ccc(Oc4ccccc4)cc3)c2cc1OC [SrcI1] (first compound 0.0008 µM, partner dose 2 µM) | 81% | 334% | 43.6% | 124% | 86.4% | 46% | 90.8% | 89.5% | 163% | 103% | 56.4% | 56.7% | 159% | 120% | 42.8% | 39.9% | 86.4% | 19.6%
17 | Nc1cccc2c1CN(C1CCC(=O)NC1=O)C2=O (configuration not stated) [lenalidomide] + Cc1cc([N+](=O)[O-])ccc1NS(=O)(=O)c1cc(Cl)ccc1Cl [FH535] (first compound 1 µM, partner dose 1 µM) | 259% | 132% | 68.1% | 79.9% | 28.8% | 129% | 108% | 493% | 360% | 221% | 130% | 75.7% | 133% | 307% | 89.2% | 47.5% | 83.1% | 106%
18 | C#Cc1cccc(Nc2ncnc3cc(OCCOC)c(OCCOC)cc23)c1 [erlotinib] + O=C(O)C(=O)Nc1sc2c(c1C(=O)O)CCNC2 [TCS401] (first compound 0.8 µM, partner dose 1.66667 µM) | 89.1% | 67.3% | 87.7% | 133% | 40.5% | 159% | 94.4% | 94.2% | 147% | 353% | 64.6% | 101% | 189% | 34.5% | 373% | 268% | 164% | 53.2%
19 | CO[C@@H]1[C@H](N(C)C(=O)c2ccccc2)C[C@H]2O[C@]1(C)n1c3ccccc3c3c4c(c5c6ccccc6n2c5c31)C(=O)NC4 [Midostaurin] + COc1cc2ncnc(Nc3ccc(Oc4ccccc4)cc3)c2cc1OC [SrcI1] (first compound 0.08 µM, partner dose 2 µM) | 97.9% | 251% | 155% | 110% | 68.7% | 79.2% | 110% | 67% | 103% | 92.4% | 135% | 144% | 118% | 127% | 49.6% | 62.8% | 71.1% | 67.6%

An excerpt from above with just cleaved PARP positive nuclei fraction (CBRC016) and cleaved PARP positive nuclei fraction (CBRC017).
Row,SMILES,cleaved PARP positive nuclei fraction (CBRC016),cleaved PARP positive nuclei fraction (CBRC017)
10,"Cc1ccc(NC(=O)c2cccc(N(C)C)c2)cc1NC(=O)c1ccc(O)cc1 + O=C1NC(=O)/C(=C/c2ccc(-c3ccc(F)cc3O)o2)S1 [AS252424] (first compound 2 µM, partner dose 1 µM)",61.4%,114%
18,"C#Cc1cccc(Nc2ncnc3cc(OCCOC)c(OCCOC)cc23)c1 [erlotinib] + O=C(O)C(=O)Nc1sc2c(c1C(=O)O)CCNC2 [TCS401] (first compound 0.8 µM, partner dose 1.66667 µM)",94.2%,147%
